Record: PubChem BioAssay AID1259308 (NCATS, 2017)

Aim: 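Genes whose loss raises luciferase production in HEK293 cells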 (primary screen)
Cells: human HEK293 embryonic kidney cells stably expressing firefly luciferase (HEK-CMV-Luc2-Hygro)
Reagent: single siRNA against human genes, 0.8 pmol siRNA per well
Time to read-out: 72 h
Read-out: 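Reporter luminescence and viable-cell signal on separate replicate plates, given as percent of non-targeting control and median/MAD z-scores, plus per-cell luciferase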
Direction: total luciferase, z-score and total luciferase, % of control: higher = more reporter protein produced; luciferase per cell, z-score: higher = more reporter output per viable cell; viable cells, % of control: higher = more viable cells
Active means: 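An siRNA counts as active if its total luciferase robust z-score exceeds 3; genes with two or more such siRNAs out of three were retested with fresh siRNAs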
Meaning of the calls: active = raised luciferase; inactive = no rise
Shown is an unselected part of about 59,000 deposited reagents. About 1,510 of all reagents (2.6%) count as active. 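Calls use total luciferase alone and ignore viability, so some active siRNAs may act by altering cell number.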 A number with no mark means an inactive call. Reagents against one gene are numbered here.

| Gene | siRNA no. | total luciferase, z-score | total luciferase, % of control | luciferase per cell, z-score | viable cells, % of control |
| --- | --- | --- | --- | --- | --- |
| CRIPT | 1 | -0.198 | 77.9 | 0.901 | 68.7 |
| CRIPT | 2 | -0.306 | 75.8 | -0.479 | 96.1 |
| CRIPT | 3 | -0.334 | 75.2 | -0.335 | 91.8 |
| SOX4 | 1 | -0.248 | 77 | -0.203 | 90.7 |
| SOX4 | 2 | 4.24 (active) | 166 | 4.04 | 64.1 |
| SOX4 | 3 | 0.45 | 90.8 | -0.412 | 113 |
| LINC00944 | 1 | 5.01 (active) | 181 | 2.66 | 101 |
| LINC00944 | 2 | -1.85 | 45.2 | -2.04 | 86.4 |
| LINC00944 | 3 | -1.22 | 57.7 | -1.28 | 90.1 |
| KYNU | 1 | -0.55 | 71 | -0.908 | 101 |
| KYNU | 2 | 0.328 | 88.4 | -0.33 | 108 |
| KYNU | 3 | 0.889 | 99.6 | -0.125 | 115 |
| USP8 | 1 | -0.125 | 79.4 | -0.527 | 102 |
| USP8 | 2 | 0.308 | 88 | -0.11 | 101 |
| USP8 | 3 | 0.331 | 88.5 | 0.255 | 92.4 |
| ZNF157 | 1 | 1.75 | 117 | 1.23 | 94.3 |
| ZNF157 | 2 | 1.36 | 109 | 1.36 | 85 |
| ZNF157 | 3 | -0.15 | 78.9 | -0.261 | 94.4 |
| SPINT1 | 1 | -0.894 | 64.1 | -1.45 | 105 |
| SPINT1 | 2 | -0.0617 | 80.7 | -0.314 | 97.9 |
| SPINT1 | 3 | 0.0811 | 83.5 | 0.0545 | 92 |
| SPAG17 | 1 | -0.178 | 78.4 | -0.741 | 106 |
| SPAG17 | 2 | -1.22 | 57.6 | -1.11 | 86.2 |
| SPAG17 | 3 | 0.503 | 91.9 | 0.0273 | 102 |
